The test concerns the target Cellular communication network factor 2 (CCN2) (human) (UniProt P29279). As to the kind of experiment: co-IP; HASMCs infected with AdCCN2, starved 6 hours (0.5% FBS), incubated with rhTGF-β1 (1 ng/mL) and rhCCN2 (100 ng/mL) for 30 minutes, fixed with 1% formaldehyde on ice for 10 minutes, lysed in Co-IP buffer; precipitated with anti-CCN2 antibody on protein G beads; Western blot for TGFBR2 and TGF-β1; normal rabbit IgG as negative control.

Sequences of proteins named here, by UniProt entry; tags and fusion partners are left off. Residues count along the entry.
UniProt P29279, residues 27-349: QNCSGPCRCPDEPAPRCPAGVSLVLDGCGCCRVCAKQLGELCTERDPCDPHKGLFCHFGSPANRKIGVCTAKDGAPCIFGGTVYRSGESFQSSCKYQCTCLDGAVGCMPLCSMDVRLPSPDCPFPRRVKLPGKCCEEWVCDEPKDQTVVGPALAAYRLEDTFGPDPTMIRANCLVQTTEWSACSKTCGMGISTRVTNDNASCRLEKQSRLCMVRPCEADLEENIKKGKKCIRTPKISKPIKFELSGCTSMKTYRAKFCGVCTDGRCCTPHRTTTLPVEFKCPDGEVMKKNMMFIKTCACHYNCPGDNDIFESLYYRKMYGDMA
UniProt P37173, residues 23-567: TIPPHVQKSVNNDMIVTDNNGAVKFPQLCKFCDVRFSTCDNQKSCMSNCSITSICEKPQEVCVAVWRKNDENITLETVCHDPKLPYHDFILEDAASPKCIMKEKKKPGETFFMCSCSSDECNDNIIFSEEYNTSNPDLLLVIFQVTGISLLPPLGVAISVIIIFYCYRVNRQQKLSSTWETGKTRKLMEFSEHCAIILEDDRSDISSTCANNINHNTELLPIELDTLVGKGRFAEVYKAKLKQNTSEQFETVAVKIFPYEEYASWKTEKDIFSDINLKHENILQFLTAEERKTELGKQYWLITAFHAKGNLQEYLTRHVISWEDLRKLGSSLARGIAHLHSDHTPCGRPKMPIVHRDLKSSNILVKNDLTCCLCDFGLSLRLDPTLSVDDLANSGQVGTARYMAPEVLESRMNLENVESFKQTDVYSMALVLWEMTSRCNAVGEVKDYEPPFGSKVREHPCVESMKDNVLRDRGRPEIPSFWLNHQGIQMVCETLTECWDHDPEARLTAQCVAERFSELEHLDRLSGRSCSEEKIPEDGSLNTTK

No constants are given. Whether binding was seen depends on the method and setting. Binding seen in cells or lysates may run through a third protein. Some binding calls cover weakened binding; strength is not graded here.

As to “TGF-β receptor 2 (from UniProt P37173 23-567)”, the binding entry was “binds”.

These data come from publication PMC9870081.
